No constants are given. Whether binding was seen depends on the method and setting. In cells and extracts the contact can be indirect. Some binding calls cover weakened binding; strength is not graded here.

Chains of the proteins cited; added tags and fusions are not shown.
UniProt P09630: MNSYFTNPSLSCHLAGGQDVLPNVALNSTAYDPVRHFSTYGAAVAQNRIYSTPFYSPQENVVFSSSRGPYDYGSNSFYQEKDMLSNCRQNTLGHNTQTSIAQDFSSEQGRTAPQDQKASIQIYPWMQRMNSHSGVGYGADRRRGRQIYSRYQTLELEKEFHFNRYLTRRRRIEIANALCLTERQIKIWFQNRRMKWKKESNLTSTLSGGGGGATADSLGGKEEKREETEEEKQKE
UniProt P35222: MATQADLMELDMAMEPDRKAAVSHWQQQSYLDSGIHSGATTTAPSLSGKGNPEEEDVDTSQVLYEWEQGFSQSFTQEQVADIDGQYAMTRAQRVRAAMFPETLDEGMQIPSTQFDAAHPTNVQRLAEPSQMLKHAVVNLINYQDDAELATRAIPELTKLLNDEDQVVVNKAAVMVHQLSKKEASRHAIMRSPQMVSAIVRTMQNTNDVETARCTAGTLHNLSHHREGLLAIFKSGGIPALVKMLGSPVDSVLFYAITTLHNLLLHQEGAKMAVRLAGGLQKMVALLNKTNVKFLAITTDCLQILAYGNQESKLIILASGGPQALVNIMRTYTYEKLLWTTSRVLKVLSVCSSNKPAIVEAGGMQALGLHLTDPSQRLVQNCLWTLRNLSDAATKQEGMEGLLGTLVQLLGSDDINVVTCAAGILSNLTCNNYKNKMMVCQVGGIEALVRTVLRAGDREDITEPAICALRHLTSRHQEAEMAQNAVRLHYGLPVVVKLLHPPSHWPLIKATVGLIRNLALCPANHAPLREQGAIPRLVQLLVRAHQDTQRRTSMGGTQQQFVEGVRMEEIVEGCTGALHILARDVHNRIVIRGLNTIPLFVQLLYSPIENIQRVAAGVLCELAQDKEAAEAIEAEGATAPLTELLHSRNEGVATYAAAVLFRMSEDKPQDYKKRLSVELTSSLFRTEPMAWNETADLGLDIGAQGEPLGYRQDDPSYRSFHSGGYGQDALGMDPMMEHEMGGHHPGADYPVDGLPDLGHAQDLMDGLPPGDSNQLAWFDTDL

The target in this assay is homeobox C6 (HOXC6), Flag-tagged, stably overexpressed in HCT116 cells (HOXC6-OE) (human) (UniProt P09630). Put plainly: co-IP; FLAG Immunoprecipitation Kit (Flag-gel) on lysates of HOXC6-OE and NC HCT116 cells; eluates western blotted for β-catenin, DKK1 and HOXC6; whole-cell lysate as positive control.

Take β-catenin (from UniProt P35222 1-781): the binding result is on record as “no binding”.

B1: DKK1 (protein, UniProt O94907 32-266)
chain: TLNSVLNSNAIKNLPPPLGGAAGHPGSAVSAAPGILYPGGNKYQTIDNYQPYPCAEDEECGTDEYCASPTRGGDAGVQICLACRKRRKRCMRHAMCCPGNYCKNGICVSSDQNHFRGEIEETITESFGNDHSTLDGYSRRTTLSSKMYHTKGQEGSVCLRSSDCASGLCCARHFWSKICKPVLKEGQVCTKHRRKGSHGLEIFQRCYCGEGLSCRIQKDHHQASNSSRLHTCQRH
For B1, the binding result is recorded as “binds”.

The record behind these values is PMC8016886.
